{
  "source": "patent US20030087799A1",
  "about": "“Modulation” (priority 2001, published 2003)",
  "type_in_all_cases": "cell-based, mouse",
  "key": {"[1]": {"tested_on": "dopaminergic neurons", "conditions": "300 nM apamin"}, "[2]": {"tested_on": "dopaminergic midbrain neurons", "conditions": "300 nM apamin; n=19; control 0%"}, "[3]": {"tested_on": "globus pallidus neurones", "assay": "Electrical activity of globus pallidus neurones in brain slices"}, "[4]": {"conditions": "clinically relevant concentrations"}},
  "note": "For at least one compound, name, drawing or mass did not settle the structure.",
  "data": [
    {"smiles": "CC(C)C[C@@H]1NC(=O)[C@H](C)NC(=O)[C@H]([C@@H](C)O)NC(=O)[C@H](CCC(=O)O)NC(=O)[C@@H]2CCCN2C(=O)[C@H](C)NC(=O)[C@H](CCCCN)NC(=O)[C@@H]2CSSC[C@@H](C(=O)N[C@@H](CCC(N)=O)C(=O)N[C@@H](CCC(N)=O)C(=O)N[C@@H](Cc3cnc[nH]3)C(N)=O)NC(=O)[C@H](CCCNC(=N)N)NC(=O)[C@H](CCCNC(=N)N)NC(=O)[C@H](C)NC(=O)[C@H](CSSC[C@H](N)C(=O)N[C@@H](CC(N)=O)C(=O)N2)NC1=O", "note": "[apamin]", "values": [
      {"measurement": "coefficient of variation (CV) of interspike intervals, representative recording", "setting": "[1]; control CV 15%", "value": 35, "unit": "%"},
      {"measurement": "mean CV of interspike intervals", "setting": "[1]; n=11, control 14±2%", "value": "26±4", "unit": "%"},
      {"measurement": "bursting value (action potentials in bursts / total)", "setting": "[2]", "value": "3±2", "unit": "%"}
    ]},
    {"smiles": "[H]/N=C(/N)NCC(=O)O", "note": "[GAA, guanidinoacetate]", "values": [
      {"measurement": "effect on membrane potential of globus pallidus neurones", "setting": "[3]; [4]", "value": "hyperpolarized"},
      {"measurement": "effect on spike frequency of globus pallidus neurones", "setting": "[3]; [4]", "value": "reduced their spike frequency"}
    ]},
    {"smiles": "CN1CCc2cc3c(cc2[C@H]1[C@@H]1OC(=O)c2c1ccc1c2OCO1)OCO3", "note": "[bicuculline]", "values": [
      {"measurement": "effect on GAA-induced effects", "setting": "[3]; GABAA receptor antagonists", "value": "blocked"}
    ]}
  ]
}
